Measurements taken from article PMC7862700.
Only a part is listed here, and it is no random draw. At the low end of the ranking the order means little.

Chains of the proteins cited; added tags and fusions are not shown. Lines headed by an entry give the natural chain unless they say otherwise; changes in a name come on top.
UniProt Q9Y603: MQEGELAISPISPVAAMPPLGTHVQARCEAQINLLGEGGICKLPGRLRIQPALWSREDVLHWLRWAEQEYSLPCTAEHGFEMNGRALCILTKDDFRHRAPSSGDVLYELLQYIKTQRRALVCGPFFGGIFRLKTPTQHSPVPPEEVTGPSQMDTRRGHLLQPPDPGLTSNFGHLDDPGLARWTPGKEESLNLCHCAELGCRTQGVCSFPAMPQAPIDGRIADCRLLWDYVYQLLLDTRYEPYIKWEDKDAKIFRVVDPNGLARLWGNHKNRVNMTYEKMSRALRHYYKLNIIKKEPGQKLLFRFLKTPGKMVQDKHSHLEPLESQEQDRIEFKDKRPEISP
UniProt P41212: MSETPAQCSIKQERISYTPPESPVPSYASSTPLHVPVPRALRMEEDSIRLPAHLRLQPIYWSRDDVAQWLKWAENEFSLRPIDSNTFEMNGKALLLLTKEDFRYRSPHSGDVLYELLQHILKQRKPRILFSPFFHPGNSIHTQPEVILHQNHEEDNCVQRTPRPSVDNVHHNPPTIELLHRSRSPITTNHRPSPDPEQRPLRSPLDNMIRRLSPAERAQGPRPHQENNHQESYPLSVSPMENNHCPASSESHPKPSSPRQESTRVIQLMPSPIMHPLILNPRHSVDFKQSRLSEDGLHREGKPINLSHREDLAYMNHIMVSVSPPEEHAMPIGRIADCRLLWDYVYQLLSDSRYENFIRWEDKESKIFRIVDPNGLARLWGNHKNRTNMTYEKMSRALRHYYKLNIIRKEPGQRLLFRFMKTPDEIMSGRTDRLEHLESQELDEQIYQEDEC

Key:
Test in all cases: DAPPL (digital affinity profiling via proximity ligation, sequencing)
Conditions in all cases: 10 mM Tris-HCl pH 7.5, 50 mM NaCl, 1 mM DTT, 4% glycerol, room temperature, 30 min; GST-TFs on glutathione beads, 16-mer random dsDNA library, 0.1% …; high values mean tight binding; double strand, one strand shown; scale: fold enrichment (6-mer frequency, TF over GST control)
[1] = molecular target: T1, ELF3 (UniProt P78545)
T1 sequence: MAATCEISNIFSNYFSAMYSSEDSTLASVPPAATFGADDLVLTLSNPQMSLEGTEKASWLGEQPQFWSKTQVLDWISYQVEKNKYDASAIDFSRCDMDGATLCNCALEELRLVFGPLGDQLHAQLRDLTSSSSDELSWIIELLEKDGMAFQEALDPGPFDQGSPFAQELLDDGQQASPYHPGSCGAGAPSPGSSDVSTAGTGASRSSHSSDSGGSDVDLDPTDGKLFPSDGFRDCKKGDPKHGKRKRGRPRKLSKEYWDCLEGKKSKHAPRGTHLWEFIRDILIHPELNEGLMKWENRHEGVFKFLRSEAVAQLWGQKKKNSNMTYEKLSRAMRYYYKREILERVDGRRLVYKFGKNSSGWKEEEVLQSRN

[2] = molecular target: ETV7 (UniProt Q9Y603)
[3] = molecular target: ETV6 (UniProt P41212)

CCGGGG
binding signal [1]: 0.711
binding signal [2]: 0.792
binding signal [3]: 0.749

ACGTAG
binding signal [1]: 0.79
binding signal [2]: 0.801
binding signal [3]: 0.755

AGTTGG
binding signal [1]: 0.506
binding signal [2]: 0.554
binding signal [3]: 0.523

CCGTCG
binding signal [1]: 0.817
binding signal [2]: 0.865
binding signal [3]: 0.759

GCGTCG
binding signal [1]: 0.752
binding signal [2]: 0.854
binding signal [3]: 0.817

TGAAGT
binding signal [1]: 0.842
binding signal [2]: 0.798
binding signal [3]: 0.787

TGCAGG
binding signal [1]: 0.959
binding signal [2]: 0.909
binding signal [3]: 0.967

CGTGCA
binding signal [1]: 0.702
binding signal [2]: 0.675
binding signal [3]: 0.71

GCTGTC
binding signal [1]: 0.901
binding signal [2]: 0.942
binding signal [3]: 0.775

TGCGAG
binding signal [1]: 0.938
binding signal [2]: 0.953
binding signal [3]: 0.878

GGTAGC
binding signal [1]: 0.888
binding signal [2]: 0.852
binding signal [3]: 0.765

GCCACG
binding signal [1]: 0.994
binding signal [2]: 1.03
binding signal [3]: 0.864

GGGGCC
binding signal [1]: 0.512
binding signal [2]: 0.547
binding signal [3]: 0.579

GGAACC
binding signal [1]: 0.811
binding signal [2]: 0.831
binding signal [3]: 0.816

CCAGTG
binding signal [1]: 0.444
binding signal [2]: 0.559
binding signal [3]: 0.451

AGCGAG
binding signal [1]: 0.626
binding signal [2]: 0.741
binding signal [3]: 0.632

AACAGT
binding signal [1]: 0.773
binding signal [2]: 0.741
binding signal [3]: 0.659

GGATCG
binding signal [1]: 0.596
binding signal [2]: 0.607
binding signal [3]: 0.597

GGAGCC
binding signal [1]: 0.371
binding signal [2]: 0.384
binding signal [3]: 0.343

GGGCGA
binding signal [1]: 0.768
binding signal [2]: 0.855
binding signal [3]: 0.834

GGCGTA
binding signal [1]: 0.636
binding signal [2]: 0.72
binding signal [3]: 0.719

GAAGGA
binding signal [1]: 0.779
binding signal [2]: 0.71
binding signal [3]: 0.749

TCGCCA
binding signal [1]: 0.906
binding signal [2]: 0.866
binding signal [3]: 0.978

CGGCGC
binding signal [1]: 0.675
binding signal [2]: 0.721
binding signal [3]: 0.727

TAGGAC
binding signal [1]: 0.853
binding signal [2]: 0.862
binding signal [3]: 0.851

GTTAGG
binding signal [1]: 0.796
binding signal [2]: 0.834
binding signal [3]: 0.795

AGACGA
binding signal [1]: 0.753
binding signal [2]: 0.73
binding signal [3]: 0.633

AGCGGG
binding signal [1]: 0.458
binding signal [2]: 0.545
binding signal [3]: 0.469

GGAGTC
binding signal [1]: 0.209
binding signal [2]: 0.267
binding signal [3]: 0.214

AGGTAC
binding signal [1]: 0.903
binding signal [2]: 0.976
binding signal [3]: 0.923

GGAGAG
binding signal [1]: 0.301
binding signal [2]: 0.327
binding signal [3]: 0.271

GGCCGT
binding signal [1]: 0.355
binding signal [2]: 0.413
binding signal [3]: 0.366

GTGAAC
binding signal [1]: 0.898
binding signal [2]: 0.794
binding signal [3]: 0.816

CACGTC
binding signal [1]: 0.89
binding signal [2]: 0.834
binding signal [3]: 0.867

GGCAAA
binding signal [1]: 0.965
binding signal [2]: 0.936
binding signal [3]: 0.972

CGGGAG
binding signal [1]: 0.191
binding signal [2]: 0.262
binding signal [3]: 0.197

TGTGAG
binding signal [1]: 0.399
binding signal [2]: 0.372
binding signal [3]: 0.303

CAAGGA
binding signal [1]: 0.903
binding signal [2]: 0.744
binding signal [3]: 0.837

AGTGCG
binding signal [1]: 0.877
binding signal [2]: 0.802
binding signal [3]: 0.84

CCGTGG
binding signal [1]: 0.462
binding signal [2]: 0.431
binding signal [3]: 0.387

ACGAGT
binding signal [1]: 0.776
binding signal [2]: 0.758
binding signal [3]: 0.788

AATCGG
binding signal [1]: 0.514
binding signal [2]: 0.57
binding signal [3]: 0.607

CAGTCT
binding signal [1]: 0.662
binding signal [2]: 0.79
binding signal [3]: 0.638

GAGGTG
binding signal [1]: 0.548
binding signal [2]: 0.549
binding signal [3]: 0.434

CACGGT
binding signal [1]: 0.828
binding signal [2]: 1
binding signal [3]: 0.86

TGAGAA
binding signal [1]: 0.698
binding signal [2]: 0.688
binding signal [3]: 0.685

GCGGGA
binding signal [1]: 0.338
binding signal [2]: 0.443
binding signal [3]: 0.406

CGGTGC
binding signal [1]: 0.559
binding signal [2]: 0.691
binding signal [3]: 0.723

ACGCAG
binding signal [1]: 0.817
binding signal [2]: 0.811
binding signal [3]: 0.801

GGAGCT
binding signal [1]: 0.638
binding signal [2]: 0.641
binding signal [3]: 0.586

GCTGGA
binding signal [1]: 0.701
binding signal [2]: 0.775
binding signal [3]: 0.807

CAGTGG
binding signal [1]: 0.545
binding signal [2]: 0.509
binding signal [3]: 0.478

GACACC
binding signal [1]: 0.769
binding signal [2]: 0.94
binding signal [3]: 0.876

CAATCG
binding signal [1]: 0.824
binding signal [2]: 0.885
binding signal [3]: 0.903

ACCGAG
binding signal [1]: 0.835
binding signal [2]: 0.787
binding signal [3]: 0.725

GACGTA
binding signal [1]: 0.693
binding signal [2]: 0.772
binding signal [3]: 0.758

GCCAAA
binding signal [1]: 0.797
binding signal [2]: 0.856
binding signal [3]: 0.819

CCAGGG
binding signal [1]: 0.684
binding signal [2]: 0.634
binding signal [3]: 0.607

GAGTGC
binding signal [1]: 0.528
binding signal [2]: 0.698
binding signal [3]: 0.68

GCCGCG
binding signal [1]: 0.818
binding signal [2]: 0.738
binding signal [3]: 0.81

CCCAGT
binding signal [1]: 0.602
binding signal [2]: 0.745
binding signal [3]: 0.624

TTGTCG
binding signal [1]: 0.769
binding signal [2]: 0.853
binding signal [3]: 0.859

CCAGAC
binding signal [1]: 0.557
binding signal [2]: 0.608
binding signal [3]: 0.634

CAGAGA
binding signal [1]: 0.579
binding signal [2]: 0.679
binding signal [3]: 0.608

ACAGAC
binding signal [1]: 0.9
binding signal [2]: 0.785
binding signal [3]: 0.833

GGCAAC
binding signal [1]: 0.94
binding signal [2]: 0.961
binding signal [3]: 0.942

AGTCGC
binding signal [1]: 0.533
binding signal [2]: 0.512
binding signal [3]: 0.506

ACGGGC
binding signal [1]: 0.795
binding signal [2]: 0.865
binding signal [3]: 0.837

GACTCA
binding signal [1]: 0.814
binding signal [2]: 0.903
binding signal [3]: 0.957

GGGTAA
binding signal [1]: 0.867
binding signal [2]: 0.959
binding signal [3]: 0.841

GAGTAC
binding signal [1]: 0.55
binding signal [2]: 0.531
binding signal [3]: 0.567

GAGTAT
binding signal [1]: 0.586
binding signal [2]: 0.665
binding signal [3]: 0.58

TGAGCC
binding signal [1]: 0.959
binding signal [2]: 0.886
binding signal [3]: 0.805

GGTCAA
binding signal [1]: 0.912
binding signal [2]: 0.987
binding signal [3]: 0.925

TCGTAA
binding signal [1]: 0.968
binding signal [2]: 0.898
binding signal [3]: 0.936

GCGCGA
binding signal [1]: 0.697
binding signal [2]: 0.831
binding signal [3]: 0.666

TGGAGT
binding signal [1]: 0.51
binding signal [2]: 0.564
binding signal [3]: 0.491

GTGGGG
binding signal [1]: 0.674
binding signal [2]: 0.522
binding signal [3]: 0.562

TGAGCA
binding signal [1]: 0.906
binding signal [2]: 0.851
binding signal [3]: 0.881

GTGAAT
binding signal [1]: 0.795
binding signal [2]: 0.851
binding signal [3]: 0.78

GACACG
binding signal [1]: 0.672
binding signal [2]: 0.761
binding signal [3]: 0.662

AGACGC
binding signal [1]: 0.654
binding signal [2]: 0.752
binding signal [3]: 0.636

CGCGGG
binding signal [1]: 0.679
binding signal [2]: 0.869
binding signal [3]: 0.703

AGGAGA
binding signal [1]: 0.214
binding signal [2]: 0.266
binding signal [3]: 0.214

CCAGGA
binding signal [1]: 0.787
binding signal [2]: 0.68
binding signal [3]: 0.7

CAGGGA
binding signal [1]: 0.565
binding signal [2]: 0.591
binding signal [3]: 0.539

GGCCGA
binding signal [1]: 0.722
binding signal [2]: 0.713
binding signal [3]: 0.771

TGAGCG
binding signal [1]: 0.666
binding signal [2]: 0.695
binding signal [3]: 0.635

GTGAAA
binding signal [1]: 0.725
binding signal [2]: 0.787
binding signal [3]: 0.673

CGGGTG
binding signal [1]: 0.782
binding signal [2]: 0.821
binding signal [3]: 0.614

TGACAG
binding signal [1]: 1.09
binding signal [2]: 0.998
binding signal [3]: 0.959

GCGCAA
binding signal [1]: 0.762
binding signal [2]: 0.849
binding signal [3]: 0.75

AGGGAC
binding signal [1]: 0.852
binding signal [2]: 0.77
binding signal [3]: 0.729

GGCGGT
binding signal [1]: 0.42
binding signal [2]: 0.443
binding signal [3]: 0.417

GTACGG
binding signal [1]: 0.927
binding signal [2]: 0.892
binding signal [3]: 0.904

GAACGG
binding signal [1]: 0.569
binding signal [2]: 0.611
binding signal [3]: 0.593

AGAAAG
binding signal [1]: 0.9
binding signal [2]: 0.862
binding signal [3]: 0.897

ACCAGG
binding signal [1]: 0.839
binding signal [2]: 0.717
binding signal [3]: 0.738

ACGCAA
binding signal [1]: 0.874
binding signal [2]: 0.813
binding signal [3]: 0.911

AAGAGC
binding signal [1]: 0.904
binding signal [2]: 0.848
binding signal [3]: 0.86

GGAGAT
binding signal [1]: 0.295
binding signal [2]: 0.348
binding signal [3]: 0.33

GGAGTA
binding signal [1]: 0.353
binding signal [2]: 0.4
binding signal [3]: 0.361

CAAGAC
binding signal [1]: 0.911
binding signal [2]: 0.909
binding signal [3]: 0.775

ACTGTG
binding signal [1]: 0.52
binding signal [2]: 0.441
binding signal [3]: 0.509

GGTGAC
binding signal [1]: 0.836
binding signal [2]: 0.731
binding signal [3]: 0.861

GGCAGA
binding signal [1]: 0.536
binding signal [2]: 0.661
binding signal [3]: 0.625

GGAAGG
binding signal [1]: 0.947
binding signal [2]: 0.815
binding signal [3]: 0.86

GACGGC
binding signal [1]: 0.674
binding signal [2]: 0.746
binding signal [3]: 0.75

GGAGTT
binding signal [1]: 0.402
binding signal [2]: 0.536
binding signal [3]: 0.439

GGGCGC
binding signal [1]: 0.585
binding signal [2]: 0.558
binding signal [3]: 0.627

GTAAGT
binding signal [1]: 0.859
binding signal [2]: 0.815
binding signal [3]: 0.843

GGAGCA
binding signal [1]: 0.488
binding signal [2]: 0.499
binding signal [3]: 0.469

AGAGCG
binding signal [1]: 0.467
binding signal [2]: 0.457
binding signal [3]: 0.451

TGTAGG
binding signal [1]: 0.729
binding signal [2]: 0.805
binding signal [3]: 0.815

GCGTGA
binding signal [1]: 0.286
binding signal [2]: 0.31
binding signal [3]: 0.269

GAGCCC
binding signal [1]: 0.816
binding signal [2]: 0.71
binding signal [3]: 0.758

AGTAAG
binding signal [1]: 0.834
binding signal [2]: 0.795
binding signal [3]: 0.882

GTAGAG
binding signal [1]: 0.601
binding signal [2]: 0.618
binding signal [3]: 0.547

AGTCCA
binding signal [1]: 0.617
binding signal [2]: 0.681
binding signal [3]: 0.699

AGACTA
binding signal [1]: 0.765
binding signal [2]: 0.79
binding signal [3]: 0.814
